According to patent US20220041723A1:
Results are given in words; binding and its absence hold for the method and conditions named. Some results given as binding are weak or reduced against the parent protein; the word gives no strength.

The chains behind the UniProt entries cited, without tags or fusion partners. Where a name states a change or a piece, a line headed by the entry shows the natural chain unless it says otherwise. A line that says so, or that is headed by a name, gives the form on record, which may keep a tag or linker.
recombinant cynomologous (cm) CTLA-4-Fc protein (R&D Systems) (G7PL88, form named): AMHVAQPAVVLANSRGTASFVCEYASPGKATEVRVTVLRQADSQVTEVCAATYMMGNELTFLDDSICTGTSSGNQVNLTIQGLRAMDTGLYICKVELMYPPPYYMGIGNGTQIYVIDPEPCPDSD

What was measured:
[1] = biological target: cynomologous CTLA-4 expressed on cells (293T cells transiently transfected with cynomologous CTLA-4; in vitro-activated cynomologous CD4+ T cells) (cynomolgus monkey) (UniProt G7PL88); assay: flow cytometry on in vitro-activated cynomolgus CD4+ T cells (endogenous CTLA-4)
[2] = biological target: recombinant cynomologous (cm) CTLA-4-Fc protein (R&D Systems) (cynomolgus monkey) (UniProt G7PL88); assay: ELISA, CTLA-4-Fc coated at 1 pmol/well, IgG titrated
[3] = biological target: cynomologous CTLA-4 expressed on cells (293T cells transiently transfected with cynomologous CTLA-4; in vitro-activated cynomologous CD4+ T cells) (cynomolgus monkey) (UniProt G7PL88); assay: flow cytometry on 293T cells transiently transfected with cynomolgus CTLA-4
[4] = biological target: recombinant cynomologous (cm) CTLA-4-Fc protein (R&D Systems) (cynomolgus monkey) (UniProt G7PL88); assay: competitive flow cytometry on human and on cyno CTLA-4 293T cells, soluble cyno CTLA-4-Fc
[5] = biological target: recombinant cynomologous (cm) CTLA-4-Fc protein (R&D Systems) (cynomolgus monkey) (UniProt G7PL88); assay: competitive flow cytometry on 293T-CTLA-4 cells, soluble rcmCTLA-4-Fc
[6] = biological target: recombinant cynomologous (cm) CTLA-4-Fc protein (R&D Systems) (cynomolgus monkey) (UniProt G7PL88); assay: ELISA, CTLA-4-Fc coated, IgG titrated
[7] = biological target: recombinant cynomologous (cm) CTLA-4-Fc protein (R&D Systems) (cynomolgus monkey) (UniProt G7PL88); assay: ELISA on recombinant cynomolgus CTLA-4 protein (FIG. 24B)
[8] = biological target: cynomologous CTLA-4 expressed on cells (293T cells transiently transfected with cynomologous CTLA-4; in vitro-activated cynomologous CD4+ T cells) (cynomolgus monkey) (UniProt G7PL88); assay: flow cytometry on cynomolgus CTLA-4 expressing cells (FIG. 25B)

Measured: binding

B1: 2-F09 (antibody, V domains shown)
VH: EVQLLESGGGLVQPGGSLRLSCAASGFTFKAYSMSWIRQAPGKGLEWVSGISNTGGSTDFADSVKGRFTISRDNSKNTLYLQMNSLRAEDTAMYYCARLGYSGYDDRGMDVWGQGTLVTVSS
VL: QSVLTQPPSASGTPGQRVTISCSGSSSNIGSNYVYWYQQLPGTAPKLLIYGNSNRPSGVPDRFSGSKSGTSASLAISGLRSEDEADYYCQSYDSSLSGPVVFGGGTKLTVLG
binds: [1] | [2] | [3] | [4] | [5]

B2: 4-E03 (antibody, human IgG1, lambda, V domains shown)
VH: EVQLLESGGGLVQPGGSLRLSCAASGFTFSDYYMSWVRQAPGKGLEWVSGISWSSRDKGYADSVKGRFTISRDNSKNTLYLQMNSLRAEDTAVYYCTTDLARYWGQGTLVTVSS
VL: QSVLTQPPSASGTPGQRVTISCTGSSSNIGAGYDVHWYQQLPGTAPKLLIYGNDNRPSGVPDRFSGSKSGTSASLAISGLRSEDEADYYCAVWDDSLNGVVFGGGTKLTVLG
binds: all assays above
